This test relates to FaDu. The experiment in a line: mitochondrial oxygen consumption rate normalised to cell number, Z score over the library; higher = higher oxygen consumption (negative = OCR reduction). The settings on record: treatment time 24 h, assay medium: 5 mM galactose, 5 mM pyruvate, 4 mM glutamine. As for the experimental part: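 Primary screen: FaDu cells were incubated 24 h with Pharmakon 1600 / TDI oncology set compounds at 2 or 10 uM. Mitochondrial-specific OCR (basal minus 2 uM antimycin A) was measured on a Seahorse XF96 in assay medium with 5 mM galactose, 5 mM pyruvate and 4 mM glutamine, then corrected for Hoechst cell number and expressed as a Z score […]. Compounds that cut cell number by >66% were excluded. Two repeats.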

These results are taken from the supplement of paper PMC4962491.

± gives the standard deviation of the averaged measurements. The list shows a part of the results, in another mix than the full data. Repeats in this data set agree poorly, so a single value says little. Square brackets hold non-standard residues; d marks the D form. Peptide text beside a SMILES is read from it. pGlu = O=C1CC[C@@H](C(=O)O)N1; Thz = O=C(O)[C@@H]1CSCN1

Take `C[C@]12CCC(=O)C=C1C=C[C@@H]1[C@@H]2CC[C@@]2(C)[C@H]1CC[C@@]21CCC(=O)O1`: the “mitochondrial oxygen consumption rate normalised” value (2 µM) is 0.573 ± 1.6. Take `CN1C(C(=O)Nc2ccccn2)=C(O)c2ccccc2S1(=O)=O`: under “2 µM”, the “mitochondrial oxygen consumption rate normalised” value was -0.0962 ± 0.26. Take `COc1c(C)c2c(c(O)c1C/C=C(\C)CCC(=O)OCCN1CCOCC1)C(=O)OC2`: the “mitochondrial oxygen consumption rate normalised” value (2 µM) was found to be 0.221 ± 1.9. As to `NCCS`, the “mitochondrial oxygen consumption rate normalised” value (2 µM) was found to be 0.247 ± 0.26. The same measure, in the same setting: the figure for `COCCOC(=O)C1=C(C)NC(C)=C(C(=O)OC(C)C)C1c1cccc([N+](=O)[O-])c1` (stereo unspecified) is 0.79 ± 1.5; for `O=C(O)C(O)C(O)C(=O)O` (stereo unspecified) it is 0.514 ± 0.43. On to `COc1ccc(CN(CCN(C)C)c2ncccn2)cc1`, for which the “mitochondrial oxygen consumption rate normalised” value (2 µM) came out at 0.308 ± 0.68. On the same count and under the same terms, the figure for `NCC(=O)CCC(=O)O` [Aminolevulinic Acid] is 0.319 ± 0.59; for `NCC(=O)CCC(=O)O` it is -0.86 ± 0.68. On to `NC(=O)c1ccc[n+]([C@@H]2O[C@H](COP(=O)([O-])OP(=O)(O)OC[C@H]3O[C@@H](n4cnc5c(N)ncnc54)[C@H](O)[C@@H]3O)[C@@H](O)[C@H]2O)c1`, for which the “mitochondrial oxygen consumption rate normalised” value (2 µM) stood at 0.349 ± 2.2. For the compound `O=C(CCCN1CCC(O)(c2ccc(Cl)cc2)CC1)c1ccc(F)cc1`, the “mitochondrial oxygen consumption rate normalised” value (2 µM) is -0.832 ± 0.17. With `Cc1ccc(C)c(OCCCC(C)(C)C(=O)O)c1`, where the note is “2 µM”, the “mitochondrial oxygen consumption rate normalised” value was -0.608 ± 0.59. Regarding `O=C(O)C[C@H](O)C[C@H](O)/C=C/c1c(C2CC2)nc2ccccc2c1-c1ccc(F)cc1`, the “mitochondrial oxygen consumption rate normalised” value (2 µM) is -0.571 ± 0.42. Same read-out and setting: the value for `COc1ccc([C@@H]2Sc3ccccc3N(CCN(C)C)C(=O)[C@@H]2OC(C)=O)cc1` was 0.462 ± 0.022; that for `Cc1cn([C@H]2C[C@H](N=[N+]=[N-])[C@@H](CO)O2)c(=O)[nH]c1=O` was 0.297 ± 0.19.

In the case of `CN(C)CCN(Cc1ccc(Cl)cc1)c1ccccn1`, the “mitochondrial oxygen consumption rate normalised” value (2 µM) is -0.0491 ± 0.31. In the case of `CCCCCCCCCCOc1cc2c(O)c(C(=O)OCC)cnc2cc1OCC`, the “mitochondrial oxygen consumption rate normalised” value runs as follows: (2 µM) 0.162 ± 0.38; (10 µM) -0.591 ± 0.88.

Consider `CC(C[N+](C)(C)C)OC(N)=O` (stereo unspecified), for which the “mitochondrial oxygen consumption rate normalised” value (2 µM) is -0.202 ± 0.4. As for `Cc1c(NC(C)C)c(=O)n(-c2ccccc2)n1C`, the “mitochondrial oxygen consumption rate normalised” value (2 µM) is -1.94 ± 0.57. Consider `NCCc1cc[nH]n1`, for which the “mitochondrial oxygen consumption rate normalised” value (2 µM) is 0.576 ± 0.37. As for `CC(=O)OCC(=O)[C@@]1(O)[C@H](OC(C)=O)C[C@H]2[C@@H]3CCC4=CC(=O)C=C[C@]4(C)[C@@]3(F)[C@@H](O)C[C@@]21C`, the “mitochondrial oxygen consumption rate normalised” value (2 µM) worked out at 1.64 ± 0.36. Consider `CC(C)Cn1cnc2c(N)nc3ccccc3c21` [Imiquimod], for which the “mitochondrial oxygen consumption rate normalised” value (2 µM) was 0.198 ± 0.36. On the same count and under the same terms, the figure for `CC(C)Cn1cnc2c(N)nc3ccccc3c21` is -0.707 ± 0.96; for `NC(=O)N1c2ccccc2CC(=O)c2ccccc21` it is 0.321 ± 0.78; for `O=C(O)CCCC[C@@H]1CCSS1` it is -0.393 ± 0.44. Regarding `Cc1cccc(Nc2ccncc2S(=O)(=O)NC(=O)NC(C)C)c1`, for the setting “2 µM”, the “mitochondrial oxygen consumption rate normalised” value is -0.264 ± 0.15. Regarding `CN(C)c1cc(NC(=O)CNC(C)(C)C)c(O)c2c1C[C@H]1C[C@H]3[C@H](N(C)C)C(O)=C(C(N)=O)C(=O)[C@@]3(O)C(O)=C1C2=O`, the “mitochondrial oxygen consumption rate normalised” value (2 µM) came to 0.367 ± 0.68. On to `CC1(C)O[C@@H]2[C@@H](CO[C@@]3(COS(N)(=O)=O)OC(C)(C)O[C@@H]23)O1`, for which the “mitochondrial oxygen consumption rate normalised” value (2 µM) is -0.666 ± 0.36. On to `COc1cc(NS(=O)(=O)c2ccc(N)cc2)nc(OC)n1`, for which, where the note is “2 µM”, the “mitochondrial oxygen consumption rate normalised” value was 0.884 ± 0.53. On the same count and under the same terms, the figure for `CC[N+](CC)(CC(=O)Nc1c(C)cccc1C)Cc1ccccc1` is 0.0274 ± 1.8; for `O=C1N=C(O)NC1(c1ccccc1)c1ccccc1` it is -0.535 ± 0.62; for `S=c1[nH]cnc2nc[nH]c12` it is -1.79 ± 0.81. Still for that read-out and setting: the figure for `S=c1[nH]cnc2nc[nH]c12` [Mercaptopurine] is -0.626 ± 0.007. Take `CC(=O)CC(c1ccc([N+](=O)[O-])cc1)c1c(O)c2ccccc2oc1=O` (stereo unspecified): the “mitochondrial oxygen consumption rate normalised” value worked out at 0.329 ± 0.17 (2 µM) and 0.325 ± 0.51 (10 µM). In the case of `CCCCCCCCNC(C)C(O)c1ccc(SC(C)C)cc1` (stereo unspecified), where the note is “2 µM”, the “mitochondrial oxygen consumption rate normalised” value amounted to 0.228 ± 0.074. `O=c1[nH]c(=O)n([C@H]2C[C@H](O)[C@@H](CO)O2)cc1C(F)(F)F`: the “mitochondrial oxygen consumption rate normalised” value (2 µM) amounted to 2.01 ± 0.92. `Cc1nnc(SCC2=C(C(=O)O)N3C(=O)[C@@H](NC(=O)Cn4cnnn4)[C@H]3SC2)s1`: the “mitochondrial oxygen consumption rate normalised” value (2 µM) came out at 0.21 ± 0.84. On to `CCCC(=O)O[C@]1(C(=O)CO)CC[C@H]2[C@@H]3CCC4=CC(=O)CC[C@]4(C)[C@H]3[C@@H](O)C[C@@]21C`, for which the “mitochondrial oxygen consumption rate normalised” value (2 µM) is 0.73 ± 2.5. Still for that read-out and setting: the figure for `CC1(C)S[C@@H]2[C@H](NC(=O)COc3ccccc3)C(=O)N2[C@H]1C(=O)O` is 0.698 ± 0.67; for `COc1ccc2c3c1O[C@H]1C[C@@H](O)C=C[C@@]31CCN(C)C2` it is 0.926 ± 0.67. In the case of `CC(C)NC(=N)NC(=N)Nc1ccc(Cl)cc1`, the “mitochondrial oxygen consumption rate normalised” value (2 µM) is -0.0178 ± 0.62. Consider `Oc1c(Cl)cc(Cl)c2cccnc12`, for which the “mitochondrial oxygen consumption rate normalised” value (2 µM) is -0.847 ± 0.84. On to `c1ccc(-c2ccc(C(c3ccccc3)n3ccnc3)cc2)cc1` (stereo unspecified), for which the “mitochondrial oxygen consumption rate normalised” value (2 µM) was found to be 0.0501 ± 0.94. Turning to `O=C1CC[C@@H](C(=O)N2CSC[C@H]2C(=O)O)N1` ([pGlu]-[Thz]-OH), the “mitochondrial oxygen consumption rate normalised” value (2 µM) is -0.502 ± 0.46.

As to `CN(C)CCC(c1ccc(Br)cc1)c1ccccn1` (stereo unspecified), the “mitochondrial oxygen consumption rate normalised” value (2 µM) was determined as 0.744 ± 1.1.

For `CCC1(c2ccccc2)C(=O)NCNC1=O`, the “mitochondrial oxygen consumption rate normalised” value (2 µM) was -1.22 ± 0.91. For `C[C@H]1C[C@H]2[C@@H]3CCC4=CC(=O)C=C[C@]4(C)[C@@]3(F)[C@@H](O)C[C@]2(C)[C@@]1(O)C(=O)COP(=O)(O)O`, the “mitochondrial oxygen consumption rate normalised” value (2 µM) is -0.752 ± 0.39 and the “mitochondrial oxygen consumption rate normalised” value (10 µM) was -0.398 ± 0.27. The like results for `CCCCC(CC)COC(=O)CC(C(=O)OCC(CC)CCCC)S(=O)(=O)O` (stereo unspecified) were, in that order, 0.0742 ± 0.21 and 0.149 ± 0.34. On to `Nc1ncnc2c1ncn2[C@@H]1O[C@H](CO)[C@@H](O)[C@@H]1O`, for which the “mitochondrial oxygen consumption rate normalised” value (2 µM) is 0.138 ± 0.043 and the “mitochondrial oxygen consumption rate normalised” value (10 µM) amounted to 0.868 ± 0.46. For `C[C@@](Cc1ccc(O)c(O)c1)(NN)C(=O)O`, the “mitochondrial oxygen consumption rate normalised” value (2 µM) is 1.13 ± 0.83.

`Cn1c(=O)c2c(ncn2CC2OCCO2)n(C)c1=O`: the “mitochondrial oxygen consumption rate normalised” value (2 µM) was 0.647 ± 0.028.
